In the supplement of paper PMC12819154, “High-throughput peptide-centric local stability assay extends protein–ligand identification to membrane proteins, tissues and bacteria” (Nature Structural & Molecular Biology, 2025):
This is one part of the list. Most values lie at the level of the controls, where differences are scatter.

By UniProt entry, the sequences of proteins in these tests, tags left out. Where a name states a change or a piece, a line headed by the entry shows the natural chain unless it says otherwise.
UniProt P48201: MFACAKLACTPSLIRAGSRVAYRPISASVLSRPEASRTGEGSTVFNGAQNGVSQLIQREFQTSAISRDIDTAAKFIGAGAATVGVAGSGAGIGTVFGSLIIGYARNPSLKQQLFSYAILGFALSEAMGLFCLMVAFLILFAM
UniProt P46531, whole entry: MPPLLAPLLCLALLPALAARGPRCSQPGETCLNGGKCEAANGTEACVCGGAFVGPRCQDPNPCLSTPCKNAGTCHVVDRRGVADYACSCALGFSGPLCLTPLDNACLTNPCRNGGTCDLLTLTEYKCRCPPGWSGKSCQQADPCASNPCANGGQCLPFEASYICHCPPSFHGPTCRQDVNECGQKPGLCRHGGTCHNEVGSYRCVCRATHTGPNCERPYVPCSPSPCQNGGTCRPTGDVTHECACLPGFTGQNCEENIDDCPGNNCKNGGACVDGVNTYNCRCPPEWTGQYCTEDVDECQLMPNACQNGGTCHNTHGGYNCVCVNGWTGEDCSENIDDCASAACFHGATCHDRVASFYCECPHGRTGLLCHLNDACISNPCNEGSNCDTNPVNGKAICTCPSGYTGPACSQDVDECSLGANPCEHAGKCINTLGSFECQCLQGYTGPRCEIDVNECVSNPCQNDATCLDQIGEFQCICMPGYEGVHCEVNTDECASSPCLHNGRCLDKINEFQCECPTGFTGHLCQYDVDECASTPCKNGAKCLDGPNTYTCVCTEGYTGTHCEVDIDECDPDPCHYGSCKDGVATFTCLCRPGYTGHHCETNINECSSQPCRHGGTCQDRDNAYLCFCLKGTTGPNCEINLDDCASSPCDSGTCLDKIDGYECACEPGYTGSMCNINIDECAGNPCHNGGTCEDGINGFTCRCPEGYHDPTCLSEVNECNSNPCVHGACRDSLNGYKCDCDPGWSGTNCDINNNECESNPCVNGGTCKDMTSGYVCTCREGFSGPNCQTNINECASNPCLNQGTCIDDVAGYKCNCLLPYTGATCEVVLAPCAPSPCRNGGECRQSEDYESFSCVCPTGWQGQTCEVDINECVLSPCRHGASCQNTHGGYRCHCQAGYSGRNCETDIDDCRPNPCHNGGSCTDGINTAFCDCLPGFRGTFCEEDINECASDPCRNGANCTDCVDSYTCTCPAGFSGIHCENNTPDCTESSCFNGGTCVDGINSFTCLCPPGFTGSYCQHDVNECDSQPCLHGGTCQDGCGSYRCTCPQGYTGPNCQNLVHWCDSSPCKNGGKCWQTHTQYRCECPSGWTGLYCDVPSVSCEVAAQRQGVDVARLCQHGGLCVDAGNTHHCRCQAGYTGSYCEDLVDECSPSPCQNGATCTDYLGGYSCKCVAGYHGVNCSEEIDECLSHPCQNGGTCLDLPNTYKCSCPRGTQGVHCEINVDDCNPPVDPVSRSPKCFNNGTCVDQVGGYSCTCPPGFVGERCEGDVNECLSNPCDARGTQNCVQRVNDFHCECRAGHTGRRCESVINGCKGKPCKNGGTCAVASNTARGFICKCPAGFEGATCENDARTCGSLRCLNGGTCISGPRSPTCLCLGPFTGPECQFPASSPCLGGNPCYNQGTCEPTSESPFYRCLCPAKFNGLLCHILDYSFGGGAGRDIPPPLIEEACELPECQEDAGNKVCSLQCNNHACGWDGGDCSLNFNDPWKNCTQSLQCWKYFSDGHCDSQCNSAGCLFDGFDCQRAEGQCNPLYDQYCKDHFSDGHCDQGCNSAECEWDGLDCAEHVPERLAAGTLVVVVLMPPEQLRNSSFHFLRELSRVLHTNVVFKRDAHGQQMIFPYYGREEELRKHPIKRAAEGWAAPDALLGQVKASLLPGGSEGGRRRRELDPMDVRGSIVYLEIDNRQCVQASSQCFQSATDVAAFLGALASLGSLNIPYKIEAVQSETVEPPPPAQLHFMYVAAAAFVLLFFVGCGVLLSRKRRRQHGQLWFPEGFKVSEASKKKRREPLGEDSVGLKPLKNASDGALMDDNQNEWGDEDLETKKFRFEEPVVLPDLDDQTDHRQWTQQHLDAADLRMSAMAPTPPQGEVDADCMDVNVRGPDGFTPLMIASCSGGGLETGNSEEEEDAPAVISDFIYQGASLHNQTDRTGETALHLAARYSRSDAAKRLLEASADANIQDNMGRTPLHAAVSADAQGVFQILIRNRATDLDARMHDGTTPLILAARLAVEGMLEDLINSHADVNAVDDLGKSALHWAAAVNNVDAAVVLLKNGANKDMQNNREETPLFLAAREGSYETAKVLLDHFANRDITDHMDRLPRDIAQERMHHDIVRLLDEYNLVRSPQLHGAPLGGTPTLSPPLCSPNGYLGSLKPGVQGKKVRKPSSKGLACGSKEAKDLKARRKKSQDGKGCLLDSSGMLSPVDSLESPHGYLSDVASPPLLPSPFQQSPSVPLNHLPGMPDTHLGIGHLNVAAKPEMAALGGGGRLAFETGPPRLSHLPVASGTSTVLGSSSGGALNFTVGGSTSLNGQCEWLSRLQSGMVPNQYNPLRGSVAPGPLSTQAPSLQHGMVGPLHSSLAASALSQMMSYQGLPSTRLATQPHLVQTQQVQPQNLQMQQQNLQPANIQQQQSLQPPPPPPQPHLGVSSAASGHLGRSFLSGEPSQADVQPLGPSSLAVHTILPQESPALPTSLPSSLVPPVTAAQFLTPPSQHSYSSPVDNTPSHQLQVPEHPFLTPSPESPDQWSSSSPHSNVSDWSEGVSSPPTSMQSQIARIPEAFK
UniProt P51825: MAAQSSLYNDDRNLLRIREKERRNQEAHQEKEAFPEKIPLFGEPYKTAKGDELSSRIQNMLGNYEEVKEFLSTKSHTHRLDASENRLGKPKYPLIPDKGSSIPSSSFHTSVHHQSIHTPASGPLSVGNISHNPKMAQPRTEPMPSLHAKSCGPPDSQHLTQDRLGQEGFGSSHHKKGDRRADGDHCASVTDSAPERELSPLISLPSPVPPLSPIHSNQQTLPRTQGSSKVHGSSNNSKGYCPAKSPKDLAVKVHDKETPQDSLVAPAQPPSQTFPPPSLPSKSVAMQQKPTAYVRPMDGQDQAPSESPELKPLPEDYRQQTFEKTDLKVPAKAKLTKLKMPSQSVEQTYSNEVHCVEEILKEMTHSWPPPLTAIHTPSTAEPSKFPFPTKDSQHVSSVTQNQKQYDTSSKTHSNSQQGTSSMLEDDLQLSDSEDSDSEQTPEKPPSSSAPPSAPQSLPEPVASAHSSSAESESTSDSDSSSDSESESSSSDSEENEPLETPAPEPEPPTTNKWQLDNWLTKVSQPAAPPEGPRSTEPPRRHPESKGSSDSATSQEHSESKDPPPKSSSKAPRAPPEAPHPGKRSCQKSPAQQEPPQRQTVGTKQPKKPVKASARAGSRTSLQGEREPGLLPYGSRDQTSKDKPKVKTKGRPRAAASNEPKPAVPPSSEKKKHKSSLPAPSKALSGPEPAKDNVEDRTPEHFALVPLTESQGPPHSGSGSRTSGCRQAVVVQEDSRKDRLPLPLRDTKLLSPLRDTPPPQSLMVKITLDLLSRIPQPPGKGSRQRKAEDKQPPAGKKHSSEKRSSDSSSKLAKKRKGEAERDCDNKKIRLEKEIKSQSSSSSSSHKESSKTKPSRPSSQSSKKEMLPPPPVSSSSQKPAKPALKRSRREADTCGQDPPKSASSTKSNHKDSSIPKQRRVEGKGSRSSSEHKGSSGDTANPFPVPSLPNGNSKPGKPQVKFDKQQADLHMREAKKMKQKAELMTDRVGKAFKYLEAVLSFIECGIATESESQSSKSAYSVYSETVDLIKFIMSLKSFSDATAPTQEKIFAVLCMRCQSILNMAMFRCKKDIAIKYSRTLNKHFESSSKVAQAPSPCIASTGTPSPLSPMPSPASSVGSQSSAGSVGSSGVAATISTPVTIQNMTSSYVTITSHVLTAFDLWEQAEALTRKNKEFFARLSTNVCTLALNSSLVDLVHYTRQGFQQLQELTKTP
UniProt P50995, whole entry: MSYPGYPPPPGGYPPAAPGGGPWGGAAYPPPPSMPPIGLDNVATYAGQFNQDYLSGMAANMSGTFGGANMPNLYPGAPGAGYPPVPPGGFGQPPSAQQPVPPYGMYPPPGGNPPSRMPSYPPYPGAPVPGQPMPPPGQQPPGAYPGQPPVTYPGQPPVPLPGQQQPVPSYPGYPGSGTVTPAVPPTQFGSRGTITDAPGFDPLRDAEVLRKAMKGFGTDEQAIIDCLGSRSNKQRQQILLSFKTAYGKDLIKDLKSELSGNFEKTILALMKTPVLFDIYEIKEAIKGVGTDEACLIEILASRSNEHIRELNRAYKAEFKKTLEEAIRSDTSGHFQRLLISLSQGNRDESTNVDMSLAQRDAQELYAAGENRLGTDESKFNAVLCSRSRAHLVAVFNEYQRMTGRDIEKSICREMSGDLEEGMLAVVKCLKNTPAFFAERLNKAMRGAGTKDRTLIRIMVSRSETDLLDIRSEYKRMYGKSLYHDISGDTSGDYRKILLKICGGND
UniProt P49959: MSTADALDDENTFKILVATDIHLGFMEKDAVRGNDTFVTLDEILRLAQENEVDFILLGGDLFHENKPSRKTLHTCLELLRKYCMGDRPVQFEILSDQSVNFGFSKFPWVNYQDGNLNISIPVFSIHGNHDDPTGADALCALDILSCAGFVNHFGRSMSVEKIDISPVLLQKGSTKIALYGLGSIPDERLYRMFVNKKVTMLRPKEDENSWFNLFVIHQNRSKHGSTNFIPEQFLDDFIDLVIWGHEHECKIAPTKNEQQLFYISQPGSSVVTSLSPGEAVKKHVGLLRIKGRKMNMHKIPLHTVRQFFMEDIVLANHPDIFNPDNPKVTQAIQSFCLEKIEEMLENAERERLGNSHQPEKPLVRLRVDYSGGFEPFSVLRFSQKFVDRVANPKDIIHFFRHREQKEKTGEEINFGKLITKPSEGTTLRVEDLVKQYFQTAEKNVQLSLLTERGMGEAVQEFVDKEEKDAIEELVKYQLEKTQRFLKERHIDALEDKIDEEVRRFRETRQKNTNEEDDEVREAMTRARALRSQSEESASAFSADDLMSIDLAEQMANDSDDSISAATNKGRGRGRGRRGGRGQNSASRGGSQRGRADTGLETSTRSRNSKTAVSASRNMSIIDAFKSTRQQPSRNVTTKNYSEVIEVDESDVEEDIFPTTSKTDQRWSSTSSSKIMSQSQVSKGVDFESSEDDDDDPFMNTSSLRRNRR
UniProt P49427: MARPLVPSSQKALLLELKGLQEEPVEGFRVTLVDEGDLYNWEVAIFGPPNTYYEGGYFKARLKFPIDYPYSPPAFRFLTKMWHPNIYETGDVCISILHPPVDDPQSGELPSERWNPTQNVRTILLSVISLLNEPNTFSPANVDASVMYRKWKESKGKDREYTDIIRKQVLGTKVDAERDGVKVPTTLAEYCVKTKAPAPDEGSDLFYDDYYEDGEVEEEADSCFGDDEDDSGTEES
UniProt P49841: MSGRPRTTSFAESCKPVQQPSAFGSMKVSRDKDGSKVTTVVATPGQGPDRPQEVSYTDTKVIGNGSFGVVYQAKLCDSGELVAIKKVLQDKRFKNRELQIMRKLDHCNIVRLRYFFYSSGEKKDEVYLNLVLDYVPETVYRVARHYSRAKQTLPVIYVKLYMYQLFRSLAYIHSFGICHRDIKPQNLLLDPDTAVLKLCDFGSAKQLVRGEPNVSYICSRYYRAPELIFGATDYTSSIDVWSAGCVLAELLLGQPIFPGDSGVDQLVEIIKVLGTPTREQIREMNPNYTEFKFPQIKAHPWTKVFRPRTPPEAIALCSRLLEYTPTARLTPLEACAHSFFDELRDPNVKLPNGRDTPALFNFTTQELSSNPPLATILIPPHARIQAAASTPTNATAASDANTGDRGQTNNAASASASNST
UniProt P51790: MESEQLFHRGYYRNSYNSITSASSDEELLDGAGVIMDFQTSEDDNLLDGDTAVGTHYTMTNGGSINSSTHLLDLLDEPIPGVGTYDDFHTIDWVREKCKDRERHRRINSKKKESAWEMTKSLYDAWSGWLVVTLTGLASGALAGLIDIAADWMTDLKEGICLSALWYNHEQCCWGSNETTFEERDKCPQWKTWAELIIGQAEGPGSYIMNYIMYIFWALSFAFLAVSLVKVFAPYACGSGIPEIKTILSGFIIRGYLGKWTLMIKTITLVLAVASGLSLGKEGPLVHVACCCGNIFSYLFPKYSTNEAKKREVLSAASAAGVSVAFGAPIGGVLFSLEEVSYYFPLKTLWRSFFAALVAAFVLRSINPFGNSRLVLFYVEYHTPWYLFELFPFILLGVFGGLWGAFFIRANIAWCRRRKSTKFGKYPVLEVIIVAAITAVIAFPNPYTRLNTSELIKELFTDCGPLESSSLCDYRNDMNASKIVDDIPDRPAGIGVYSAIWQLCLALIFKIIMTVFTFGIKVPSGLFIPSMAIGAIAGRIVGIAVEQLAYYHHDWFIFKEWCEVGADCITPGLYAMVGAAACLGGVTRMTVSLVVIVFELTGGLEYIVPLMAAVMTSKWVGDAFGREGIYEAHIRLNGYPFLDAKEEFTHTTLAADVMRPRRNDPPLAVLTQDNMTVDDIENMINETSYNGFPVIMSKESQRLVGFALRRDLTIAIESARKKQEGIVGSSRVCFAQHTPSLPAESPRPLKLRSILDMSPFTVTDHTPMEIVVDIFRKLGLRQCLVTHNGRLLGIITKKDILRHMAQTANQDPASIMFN

compound: Cc1nc(Nc2ncc(C(=O)Nc3c(C)cccc3Cl)s2)cc(N2CCN(CCO)CC2)n1 [dasatinib]; test: log2 fold change of tryptic peptide abundance, ligand vs vehicle (limited proteolysis) (log2 ratio); higher = more trypsin-susceptible (destabilized); conditions: ligand concentration: 5 uM; sample: K562 cleared lysate

| Target | log2 fold change |
| --- | --- |
| ZNF131 (peptide sequence: HLSDAHNISER, peptide start residue: 438) (UniProt P52739) | -0.92 |
| UniProt P48201 (peptide sequence: LACTPSLIR, peptide start residue: 7) | -0.22 |
| IDH3A (peptide sequence: CREVAESCK, peptide start residue: 215) (UniProt P50213) | -1.1 |
| CLK2 (peptide sequence: EHLAMMER, peptide start residue: 388) (UniProt P49760) | 0.41 |
| UniProt P52737 (peptide sequence: HIKDHSGHEPK, peptide start residue: 120) | -0.389 |
| NOTCH1 (peptide sequence: VASFYCECPHGR, peptide start residue: 354) (UniProt P46531) | 0.231 |
| AFF1 (peptide sequence: VSQPAAPPEGPR, peptide start residue: 522) (UniProt P51825) | 0.266 |
| ANXA11 (peptide sequence: KTLEEAIR, peptide start residue: 320) (UniProt P50995) | -0.466 |
| RPL5 (peptide sequence: YLMEEDEDAYKKQFSQYIK, peptide start residue: 210) (UniProt P46777) | 0.303 |
| RPS10 (peptide sequence: RSAVPPGADKK, peptide start residue: 129) (UniProt P46783) | 0.0974 |
| HNMT (peptide sequence: AELGKDLQEPEFSAK, peptide start residue: 260) (UniProt P50135) | -0.39 |
| GYG1 (peptide sequence: ERWEQGQADYMGADSFDNIKR, peptide start residue: 323) (UniProt P46976) | 0.365 |
| AKR1C2 (peptide sequence: LLEMILNKPGLK, peptide start residue: 172) (UniProt P52895) | 0.121 |
| RPL29 (peptide sequence: EVKPKIPK, peptide start residue: 80) (UniProt P47914) | -1.04 |
| PREP (peptide sequence: VVPLHSLK, peptide start residue: 644) (UniProt P48147) | -0.185 |
| MECP2 (peptide sequence: SAGKYDVYLINPQGK, peptide start residue: 116) (UniProt P51608) | 0.488 |
| CRIP2 (peptide sequence: GVNTGAVGSYIYDRDPEGK, peptide start residue: 187) (UniProt P52943) | 0.0884 |
| UniProt P49959 (peptide sequence: HIDALEDKIDEEVRR, peptide start residue: 489) | -0.105 |
| CDC34 (peptide sequence: DGVKVPTTLAEYCVK, peptide start residue: 179) (UniProt P49427) | 0.207 |

Some of the entries above, reformatted.
Target,log2 fold change
"UniProt P48201 (peptide sequence: LACTPSLIR, peptide start residue: 7)",-0.22
"IDH3A (peptide sequence: CREVAESCK, peptide start residue: 215) (UniProt P50213)",-1.1
"CLK2 (peptide sequence: EHLAMMER, peptide start residue: 388) (UniProt P49760)",0.41
"AFF1 (peptide sequence: VSQPAAPPEGPR, peptide start residue: 522) (UniProt P51825)",0.266
"RPL5 (peptide sequence: YLMEEDEDAYKKQFSQYIK, peptide start residue: 210) (UniProt P46777)",0.303
"GYG1 (peptide sequence: ERWEQGQADYMGADSFDNIKR, peptide start residue: 323) (UniProt P46976)",0.365
"RPL29 (peptide sequence: EVKPKIPK, peptide start residue: 80) (UniProt P47914)",-1.04
"PREP (peptide sequence: VVPLHSLK, peptide start residue: 644) (UniProt P48147)",-0.185
"UniProt P49959 (peptide sequence: HIDALEDKIDEEVRR, peptide start residue: 489)",-0.105
"CDC34 (peptide sequence: DGVKVPTTLAEYCVK, peptide start residue: 179) (UniProt P49427)",0.207

Going on with the list.

| Target | log2 fold change |
| --- | --- |
| UniProt P51149 (peptide sequence: EVMVDDR, peptide start residue: 49) | 0.184 |
| ACADVL (peptide sequence: SFAVGMFK, peptide start residue: 72) (UniProt P49748) | -0.321 |
| NUP98 (peptide sequence: ETFLTQK, peptide start residue: 1602) (UniProt P52948) | -0.49 |
| HNRNPF (peptide sequence: HSGPNSADSANDGFVR, peptide start residue: 99) (UniProt P52597) | 0.0917 |
| ARCN1 (peptide sequence: ISDDKYGR, peptide start residue: 305) (UniProt P48444) | -0.342 |
| RPS5 (peptide sequence: QAVDVSPLR, peptide start residue: 137) (UniProt P46782) | 0.156 |
| POLR2K (peptide sequence: CRECGYR, peptide start residue: 36) (UniProt P53803) | -0.617 |
| SULT1A1 (peptide sequence: NAKDVAVSYYHFYHMAK, peptide start residue: 131) (UniProt P50225) | 0.202 |
| PSMD7 (peptide sequence: VVVHPLVLLSVVDHFNR, peptide start residue: 9) (UniProt P51665) | 0.523 |
| KNTC1 (peptide sequence: HCGKPVPPDTAPCEILK, peptide start residue: 2186) (UniProt P50748) | 0.392 |
| UniProt P46734 (peptide sequence: DVKPSNVLINK, peptide start residue: 190) | 0.0888 |
| CAPZB (peptide sequence: SGSGTMNLGGSLTR, peptide start residue: 182) (UniProt P47756) | -0.236 |
| UniProt P50539 (peptide sequence: KLEEAERK, peptide start residue: 118) | 0.13 |
| SMARCA4 (peptide sequence: RLLLTGTPLQNK, peptide start residue: 906) (UniProt P51532) | -0.393 |
| RXRG (peptide sequence: HICAICGDR, peptide start residue: 133) (UniProt P48443) | 0.097 |
| UniProt P49841 (peptide sequence: AKQTLPVIYVK, peptide start residue: 149) | -0.65 |
| SUB1 (peptide sequence: QVAPEKPVKK, peptide start residue: 30) (UniProt P53999) | 0.0532 |
| CLCN3 (peptide sequence: DLTIAIESAR, peptide start residue: 711) (UniProt P51790) | -0.207 |
